Data as given in the supplement of paper PMC10849652.
This is one part of the list.

Protein sequences, listed by entry. Tags and fused reporters are not part of them. Lines headed by an entry give the natural chain unless they say otherwise; changes in a name come on top.
UniProt P48029: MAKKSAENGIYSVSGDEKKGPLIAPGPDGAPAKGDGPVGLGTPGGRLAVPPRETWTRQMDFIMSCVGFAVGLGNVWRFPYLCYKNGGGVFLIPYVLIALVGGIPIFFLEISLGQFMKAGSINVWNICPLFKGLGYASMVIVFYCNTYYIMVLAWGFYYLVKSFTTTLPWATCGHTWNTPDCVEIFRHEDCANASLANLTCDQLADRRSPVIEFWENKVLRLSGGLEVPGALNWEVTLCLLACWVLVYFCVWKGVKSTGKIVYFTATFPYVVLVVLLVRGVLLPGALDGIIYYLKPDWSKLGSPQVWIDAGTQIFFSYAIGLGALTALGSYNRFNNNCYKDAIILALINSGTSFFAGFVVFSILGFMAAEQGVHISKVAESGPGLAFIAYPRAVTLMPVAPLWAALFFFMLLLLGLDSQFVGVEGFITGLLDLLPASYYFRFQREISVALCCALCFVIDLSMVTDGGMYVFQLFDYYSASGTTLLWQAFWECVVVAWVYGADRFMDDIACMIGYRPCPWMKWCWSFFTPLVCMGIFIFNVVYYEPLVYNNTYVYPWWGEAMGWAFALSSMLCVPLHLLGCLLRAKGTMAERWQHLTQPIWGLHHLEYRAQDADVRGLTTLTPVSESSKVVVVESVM
UniProt P53007, whole entry, looked up: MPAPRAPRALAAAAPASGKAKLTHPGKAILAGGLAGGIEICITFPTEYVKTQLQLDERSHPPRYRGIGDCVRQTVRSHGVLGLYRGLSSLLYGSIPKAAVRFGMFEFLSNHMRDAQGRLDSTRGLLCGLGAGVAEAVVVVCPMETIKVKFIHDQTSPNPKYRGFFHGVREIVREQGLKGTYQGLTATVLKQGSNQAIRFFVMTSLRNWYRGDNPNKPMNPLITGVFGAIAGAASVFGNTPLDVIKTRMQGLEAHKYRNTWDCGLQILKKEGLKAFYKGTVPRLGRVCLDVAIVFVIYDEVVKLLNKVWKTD
UniProt Q8WUM9: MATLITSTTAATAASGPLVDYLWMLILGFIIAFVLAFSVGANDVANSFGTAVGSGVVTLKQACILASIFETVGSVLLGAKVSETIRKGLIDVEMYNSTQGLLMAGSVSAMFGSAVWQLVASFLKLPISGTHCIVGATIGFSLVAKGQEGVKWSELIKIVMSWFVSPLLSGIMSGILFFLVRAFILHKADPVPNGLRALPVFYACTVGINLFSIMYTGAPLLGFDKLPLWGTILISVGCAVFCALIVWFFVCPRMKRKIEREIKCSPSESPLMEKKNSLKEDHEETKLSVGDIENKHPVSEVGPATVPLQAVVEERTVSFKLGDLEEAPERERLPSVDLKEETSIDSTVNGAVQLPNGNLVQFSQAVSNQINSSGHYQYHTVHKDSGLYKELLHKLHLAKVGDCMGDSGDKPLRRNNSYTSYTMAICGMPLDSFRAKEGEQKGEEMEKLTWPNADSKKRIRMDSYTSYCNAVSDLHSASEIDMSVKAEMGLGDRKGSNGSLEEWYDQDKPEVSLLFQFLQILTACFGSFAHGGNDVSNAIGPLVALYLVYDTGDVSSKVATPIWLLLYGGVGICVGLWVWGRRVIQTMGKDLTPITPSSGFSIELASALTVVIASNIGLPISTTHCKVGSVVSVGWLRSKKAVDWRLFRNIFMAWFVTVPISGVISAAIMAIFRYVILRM
UniProt Q01650: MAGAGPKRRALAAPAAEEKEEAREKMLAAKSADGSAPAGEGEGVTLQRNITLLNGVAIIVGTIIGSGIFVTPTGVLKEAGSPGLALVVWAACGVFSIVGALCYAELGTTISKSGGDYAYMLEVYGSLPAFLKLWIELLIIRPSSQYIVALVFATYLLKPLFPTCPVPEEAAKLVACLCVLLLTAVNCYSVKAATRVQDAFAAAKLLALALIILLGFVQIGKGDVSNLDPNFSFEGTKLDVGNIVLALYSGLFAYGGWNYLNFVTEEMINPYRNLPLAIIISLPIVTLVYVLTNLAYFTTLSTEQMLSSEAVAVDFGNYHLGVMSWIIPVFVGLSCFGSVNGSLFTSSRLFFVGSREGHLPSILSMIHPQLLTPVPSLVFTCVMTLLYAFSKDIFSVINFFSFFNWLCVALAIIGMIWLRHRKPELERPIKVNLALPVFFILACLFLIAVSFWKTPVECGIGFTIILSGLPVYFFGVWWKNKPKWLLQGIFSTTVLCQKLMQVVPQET
UniProt Q02978: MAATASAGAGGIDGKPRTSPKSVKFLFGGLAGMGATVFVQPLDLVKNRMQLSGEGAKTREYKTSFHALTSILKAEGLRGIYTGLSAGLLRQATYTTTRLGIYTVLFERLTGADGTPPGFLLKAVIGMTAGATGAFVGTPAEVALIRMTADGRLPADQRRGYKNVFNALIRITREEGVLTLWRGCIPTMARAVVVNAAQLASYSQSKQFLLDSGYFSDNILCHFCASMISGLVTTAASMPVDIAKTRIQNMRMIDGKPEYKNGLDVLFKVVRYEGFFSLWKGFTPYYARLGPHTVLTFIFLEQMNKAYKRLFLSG
UniProt Q96H78: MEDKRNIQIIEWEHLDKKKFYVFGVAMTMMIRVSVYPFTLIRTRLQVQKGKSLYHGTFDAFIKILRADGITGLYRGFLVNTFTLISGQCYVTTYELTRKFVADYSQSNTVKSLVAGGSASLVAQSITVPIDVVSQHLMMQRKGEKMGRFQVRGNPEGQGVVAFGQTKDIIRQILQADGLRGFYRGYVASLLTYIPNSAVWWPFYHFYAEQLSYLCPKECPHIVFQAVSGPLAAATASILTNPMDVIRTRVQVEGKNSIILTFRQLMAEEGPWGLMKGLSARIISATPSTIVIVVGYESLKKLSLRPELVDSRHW
UniProt P05141: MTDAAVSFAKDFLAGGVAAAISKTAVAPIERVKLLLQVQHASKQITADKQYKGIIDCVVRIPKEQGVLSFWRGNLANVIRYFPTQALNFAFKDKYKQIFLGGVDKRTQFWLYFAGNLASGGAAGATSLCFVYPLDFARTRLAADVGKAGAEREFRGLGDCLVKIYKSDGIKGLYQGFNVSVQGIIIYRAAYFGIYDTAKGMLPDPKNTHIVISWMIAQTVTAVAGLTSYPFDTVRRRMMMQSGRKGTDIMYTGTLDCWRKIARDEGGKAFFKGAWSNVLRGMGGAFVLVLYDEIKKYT
UniProt Q99808: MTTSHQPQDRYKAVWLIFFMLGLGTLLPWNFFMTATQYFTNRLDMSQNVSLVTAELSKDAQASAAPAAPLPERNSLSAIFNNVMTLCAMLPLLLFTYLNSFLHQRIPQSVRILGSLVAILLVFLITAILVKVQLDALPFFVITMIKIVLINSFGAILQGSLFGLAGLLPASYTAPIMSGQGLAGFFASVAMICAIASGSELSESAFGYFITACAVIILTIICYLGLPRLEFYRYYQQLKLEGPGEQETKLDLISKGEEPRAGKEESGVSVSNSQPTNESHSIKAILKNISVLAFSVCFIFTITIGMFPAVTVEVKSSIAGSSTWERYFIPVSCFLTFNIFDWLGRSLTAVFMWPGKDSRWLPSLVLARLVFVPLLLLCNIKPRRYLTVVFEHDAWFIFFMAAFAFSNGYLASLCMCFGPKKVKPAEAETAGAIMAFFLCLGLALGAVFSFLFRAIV
UniProt Q9H1U9: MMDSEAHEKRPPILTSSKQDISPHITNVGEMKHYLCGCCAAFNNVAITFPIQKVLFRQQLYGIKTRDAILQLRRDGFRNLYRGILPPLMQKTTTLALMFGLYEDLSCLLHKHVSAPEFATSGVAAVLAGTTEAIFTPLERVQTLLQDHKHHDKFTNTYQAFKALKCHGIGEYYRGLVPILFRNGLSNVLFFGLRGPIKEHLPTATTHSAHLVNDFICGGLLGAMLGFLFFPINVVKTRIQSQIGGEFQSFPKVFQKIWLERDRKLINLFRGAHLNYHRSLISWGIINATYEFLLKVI
UniProt Q9HBR0: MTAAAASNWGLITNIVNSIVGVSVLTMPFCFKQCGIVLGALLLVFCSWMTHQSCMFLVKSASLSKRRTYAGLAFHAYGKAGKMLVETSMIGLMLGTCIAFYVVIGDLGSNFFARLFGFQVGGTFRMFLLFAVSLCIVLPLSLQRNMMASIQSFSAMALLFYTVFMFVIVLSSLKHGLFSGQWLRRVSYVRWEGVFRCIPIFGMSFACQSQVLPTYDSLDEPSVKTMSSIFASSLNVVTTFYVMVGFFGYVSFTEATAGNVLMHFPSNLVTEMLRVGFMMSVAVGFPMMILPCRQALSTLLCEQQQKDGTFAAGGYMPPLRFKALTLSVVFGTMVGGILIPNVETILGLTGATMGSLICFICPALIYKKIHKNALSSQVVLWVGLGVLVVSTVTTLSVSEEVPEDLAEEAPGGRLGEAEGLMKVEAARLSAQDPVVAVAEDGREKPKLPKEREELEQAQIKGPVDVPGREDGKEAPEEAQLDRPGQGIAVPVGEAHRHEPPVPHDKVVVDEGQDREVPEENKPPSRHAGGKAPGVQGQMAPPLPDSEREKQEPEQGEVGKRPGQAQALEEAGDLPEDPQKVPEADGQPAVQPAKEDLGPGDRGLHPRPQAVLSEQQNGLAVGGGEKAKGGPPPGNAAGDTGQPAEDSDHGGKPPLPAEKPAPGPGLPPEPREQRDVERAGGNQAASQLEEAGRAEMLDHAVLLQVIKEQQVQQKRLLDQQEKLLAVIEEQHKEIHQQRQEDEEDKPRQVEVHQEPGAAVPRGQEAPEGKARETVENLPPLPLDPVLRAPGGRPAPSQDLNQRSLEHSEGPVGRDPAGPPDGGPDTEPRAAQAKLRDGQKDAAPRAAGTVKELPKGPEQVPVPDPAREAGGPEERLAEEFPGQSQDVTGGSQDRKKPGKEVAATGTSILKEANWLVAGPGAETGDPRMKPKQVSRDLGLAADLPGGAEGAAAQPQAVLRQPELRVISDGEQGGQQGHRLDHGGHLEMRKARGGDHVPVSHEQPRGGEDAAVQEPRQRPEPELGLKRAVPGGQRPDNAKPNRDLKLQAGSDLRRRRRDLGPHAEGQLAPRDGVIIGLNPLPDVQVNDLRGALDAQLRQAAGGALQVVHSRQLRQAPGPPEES
UniProt Q92504: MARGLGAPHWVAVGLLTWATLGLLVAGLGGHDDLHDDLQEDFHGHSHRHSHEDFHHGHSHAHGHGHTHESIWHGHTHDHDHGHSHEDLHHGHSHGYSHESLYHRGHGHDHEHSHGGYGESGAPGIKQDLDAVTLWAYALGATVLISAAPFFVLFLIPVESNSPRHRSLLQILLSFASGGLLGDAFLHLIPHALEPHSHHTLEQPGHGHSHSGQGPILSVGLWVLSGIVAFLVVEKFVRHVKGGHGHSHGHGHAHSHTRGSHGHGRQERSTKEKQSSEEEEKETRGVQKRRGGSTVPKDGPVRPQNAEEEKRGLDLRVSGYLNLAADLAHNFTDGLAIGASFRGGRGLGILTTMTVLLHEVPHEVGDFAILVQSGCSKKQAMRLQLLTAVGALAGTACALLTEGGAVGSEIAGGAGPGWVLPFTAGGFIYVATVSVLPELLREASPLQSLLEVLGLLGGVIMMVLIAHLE
UniProt Q14542: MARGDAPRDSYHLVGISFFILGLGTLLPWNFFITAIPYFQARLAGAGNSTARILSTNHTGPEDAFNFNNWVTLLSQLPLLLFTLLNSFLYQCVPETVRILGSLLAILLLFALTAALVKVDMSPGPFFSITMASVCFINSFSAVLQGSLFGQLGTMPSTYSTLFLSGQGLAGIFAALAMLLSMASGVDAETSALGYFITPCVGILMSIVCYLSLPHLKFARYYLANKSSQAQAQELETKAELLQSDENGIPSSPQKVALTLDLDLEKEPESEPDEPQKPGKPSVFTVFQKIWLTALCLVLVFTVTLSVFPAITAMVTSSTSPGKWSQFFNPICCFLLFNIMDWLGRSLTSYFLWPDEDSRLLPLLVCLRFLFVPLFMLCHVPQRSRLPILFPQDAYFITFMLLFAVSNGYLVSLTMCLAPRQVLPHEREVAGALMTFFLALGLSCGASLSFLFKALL
UniProt Q15043: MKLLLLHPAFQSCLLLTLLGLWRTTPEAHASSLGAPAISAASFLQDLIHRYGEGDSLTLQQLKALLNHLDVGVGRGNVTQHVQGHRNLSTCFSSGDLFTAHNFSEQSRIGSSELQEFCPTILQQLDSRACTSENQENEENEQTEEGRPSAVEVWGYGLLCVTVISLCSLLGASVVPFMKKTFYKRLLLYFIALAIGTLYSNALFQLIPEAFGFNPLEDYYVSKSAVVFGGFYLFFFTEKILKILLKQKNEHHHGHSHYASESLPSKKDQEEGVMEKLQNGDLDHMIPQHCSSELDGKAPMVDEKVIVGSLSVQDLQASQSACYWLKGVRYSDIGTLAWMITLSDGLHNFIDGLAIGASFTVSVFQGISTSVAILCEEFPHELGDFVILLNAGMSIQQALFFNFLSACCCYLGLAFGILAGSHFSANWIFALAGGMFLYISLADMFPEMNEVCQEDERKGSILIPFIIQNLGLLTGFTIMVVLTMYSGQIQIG
UniProt L0R6Q1: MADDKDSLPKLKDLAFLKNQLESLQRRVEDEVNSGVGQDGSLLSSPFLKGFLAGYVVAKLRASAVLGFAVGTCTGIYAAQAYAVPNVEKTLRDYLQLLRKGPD

compound: NC(=O)c1cnc(N[C@@H]2CCCC[C@@H]2N)nc1Nc1cccc(-n2nccn2)c1; assay: log2 fold change, soluble protein after heating vs DMSO (PISA); higher = thermal stabilisation; K562 cells, 10 uM, 30 min; active = over 0.2 and 3.5 SD of the protein, either way, in both replicates (recomputed)
Outline: (§1)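 K562 cells at 2×10^6 cells/mL were treated for 30 min with 10 μM compound, and aliquots were heated for 3 min over 48°C-58°C before pooling. Extraction used PBS with 0.5% NP-40 at 4°C, and soluble protein was the supernatant after 21,000xg for 90 min, measured by TMTpro 16plex LC-MS/MS with channel sums equalised. Thermal stability values, relative to control samples and from duplicates, are log2 fold changes.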

log2 fold change, inactive:
SLC39A10 (UniProt Q9ULF5) 0.046
SLC45A4 isoform 3 (UniProt Q5BKX6) -0.08
SLC3A2 isoform 3 (UniProt P08195) 0.097
SLC20A2 (UniProt Q08357) 0.002
SLC25A25 isoform 3 (UniProt Q6KCM7) 0.003
SLC39A6 (UniProt Q13433) 0.03
SLC30A5 (UniProt Q8TAD4) -0.102
SLC6A8 (UniProt P48029) 0.101
SLC25A1 (UniProt P53007) 0.044
SLC25A37 (UniProt Q9NYZ2) 0.028
SLC4A1AP (UniProt Q9BWU0) -0.058
SLC30A1 (UniProt Q9Y6M5) 0.135
SLC20A1 (UniProt Q8WUM9) -0.032
SLC5A6 (UniProt Q9Y289) 0.082
SLC35B2 (UniProt Q8TB61) -0.047
SLC35A2 isoform 4 (UniProt P78381) -0.17
SLC25A24 (UniProt Q6NUK1) 0.021
SLC1A4 (UniProt P43007) 0.077
SLC25A16 (UniProt P16260) 0.043
SLC25A3 isoform 2 (UniProt Q00325) -0.004
SLC25A22 (UniProt Q9H936) 0
SLC7A5 (UniProt Q01650) 0.019
SLC26A6 (UniProt Q9BXS9) 0.007
SLC25A11 (UniProt Q02978) 0.02
SLC2A3 (UniProt P11169) 0.048
SLC25A44 (UniProt Q96H78) -0.031
SLC16A1 (UniProt P53985) -0.021
SLC25A5 (UniProt P05141) -0.004
SLC29A1 isoform 2 (UniProt Q99808) 0.094
SLC25A51 (UniProt Q9H1U9) -0.009
SLC38A10 (UniProt Q9HBR0) -0.014
SLC25A31 (UniProt Q9H0C2) 0.036
SLC25A40 (UniProt Q8TBP6) -0.001
SLC39A8 (UniProt Q9C0K1) 0.014
SLC39A7 (UniProt Q92504) -0.077
SLC29A2 (UniProt Q14542) 0.148
SLC39A14 (UniProt Q15043) 0.071
SLC35A4 (UniProt L0R6Q1) -0.07

compound: NC1(c2ccc(-c3nc4ccn5c(=O)[nH]nc5c4cc3-c3ccccc3)cc2)CCC1; assay: as above
Outline: as §1

log2 fold change, inactive:
SLC39A10 (UniProt Q9ULF5) 0.113
SLC45A4 isoform 3 (UniProt Q5BKX6) 0.089
SLC3A2 isoform 3 (UniProt P08195) 0.086
SLC20A2 (UniProt Q08357) -0.03
SLC25A25 isoform 3 (UniProt Q6KCM7) -0.029
SLC39A6 (UniProt Q13433) 0.124
SLC30A5 (UniProt Q8TAD4) -0.152
SLC6A8 (UniProt P48029) 0.105
SLC25A1 (UniProt P53007) 0.003
SLC25A37 (UniProt Q9NYZ2) 0.009
SLC4A1AP (UniProt Q9BWU0) -0.051
SLC30A1 (UniProt Q9Y6M5) 0.025
SLC20A1 (UniProt Q8WUM9) 0
SLC5A6 (UniProt Q9Y289) 0.053
SLC35B2 (UniProt Q8TB61) -0.027
SLC35A2 isoform 4 (UniProt P78381) -0.007
SLC25A24 (UniProt Q6NUK1) -0.01
SLC1A4 (UniProt P43007) 0.097
SLC25A16 (UniProt P16260) -0.082
SLC25A3 isoform 2 (UniProt Q00325) 0.037
SLC25A22 (UniProt Q9H936) 0.011
SLC7A5 (UniProt Q01650) 0.144
SLC26A6 (UniProt Q9BXS9) 0.062
SLC25A11 (UniProt Q02978) 0.016
SLC2A3 (UniProt P11169) 0.072
SLC25A44 (UniProt Q96H78) -0.062
SLC16A1 (UniProt P53985) 0.12
SLC25A5 (UniProt P05141) 0.111
SLC29A1 isoform 2 (UniProt Q99808) 0.094
SLC25A51 (UniProt Q9H1U9) -0.024
SLC38A10 (UniProt Q9HBR0) 0.023
SLC25A31 (UniProt Q9H0C2) -0.013
SLC25A40 (UniProt Q8TBP6) 0
SLC39A8 (UniProt Q9C0K1) -0.155
SLC39A7 (UniProt Q92504) 0.015
SLC29A2 (UniProt Q14542) 0.081
SLC39A14 (UniProt Q15043) -0.001
SLC35A4 (UniProt L0R6Q1) -0.027
